Literature values, collected in US8372850B2, “Aminopyridines and aminopyrimidines useful as inhibitors of protein kinases” (Vertex Pharmaceuticals Incorporated, priority 2006, dated 2013).
For at least one compound, name, drawing or mass did not settle the structure.

Test system: Mice over-expressing amyloid precursor protein (APP)
Settings: treated over a three-week period; cited from earlier work

Question: For [Li] [lithium], which “decrease in amyloid-β peptide tissue levels” value is on record?
Answer: > 50%
